PubChem BioAssay AID1259424, University of Nebraska Medical Center | 2018

- Purpose: 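Seek colon cancer survival genes behaving like KSR1, using a six-gene signature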 (primary screen)
- Cells: human HCT116 colon cancer cells
- Reagent: siRNA pool against human genes, 50 nM
- Measured: 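Six signature mRNAs by branched-DNA multiplex assay, scaled to two housekeeping genes and non-targeting median, log2; matched to mean KSR1 knockdown profile by Pearson correlation and euclidean distance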
- Direction: mean correlation with KSR1 profile and KSR1 correlation: higher = expression change more like KSR1 knockdown; mean distance from KSR1 profile: higher = expression change less like KSR1 knockdown
Here is a random part of about 14,000 reagents tested. 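Higher correlation or smaller distance means closer resemblance to KSR1 loss; control wells, including KSR1 knockdowns, recur on many plates.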 Reagent sequences are not shown. The record does not give: the time to read-out.

Gene	mean correlation with KSR1 profile	mean distance from KSR1 profile	KSR1 correlation, replicate 1	KSR1 correlation, replicate 2	KSR1 correlation, replicate 3
MXRA8 (matrix remodeling associated 8)	0.0345	3.01	-0.0435	0.0254	0.0754
RSKR (ribosomal protein S6 kinase related)	0.598	1.85	0.585	0.176	0.326
BNIP1 (BCL2 interacting protein 1)	-0.0691	2.56	-0.444	-0.364	0.243
TNFRSF19 (TNF receptor superfamily member 19)	0.043	1.29	0.251	0.0663	-0.178
JMJD7-PLA2G4B (JMJD7-PLA2G4B readthrough)	-0.424	2.75	-0.401	-0.57	-0.393
MAGEL2 (MAGE family member L2)	0.0966	2.7	0.149	0.0247	0.347
PHOSPHO1 (phosphoethanolamine/phosphocholine phosphatase 1)	-0.533	1.68	-0.571	-0.432	-0.571
SLC47A1	-0.471	2.52	-0.575	-0.502	-0.404
MRPL47 (mitochondrial ribosomal protein L47)	-0.399	2.48	-0.193	-0.312	-0.343
NRXN1 (neurexin 1)	-0.652	2.02	-0.661	-0.172	-0.604
MLX (MAX dimerization protein MLX)	-0.344	2.32	-0.159	-0.326	-0.227
EID1 (EP300 interacting inhibitor of differentiation 1)	-0.172	2.14	0.0601	-0.393	-0.194
MACO1 (macoilin 1)	-0.275	1.94	-0.293	-0.47	-0.419
KCNK1 (potassium two pore domain channel subfamily K member 1)	0.195	2.63	0.0573	0.178	0.196
TMEM158 (transmembrane protein 158)	-0.0803	1.71	-0.551	-0.234	0.279
DRAM1 (DNA damage regulated autophagy modulator 1)	-0.317	1.39	-0.571	-0.268	-0.388
IL2RG (interleukin 2 receptor subunit gamma)	0.305	1.12	0.239	0.219	0.526
UBE3B (ubiquitin protein ligase E3B)	-0.0421	1.67	-0.444	0.103	-0.0626
ABCC3 (ATP binding cassette subfamily C member 3)	-0.0356	3.3	0.00367	0.0263	-0.222
GPRC5B (G protein-coupled receptor class C group 5 member B)	0.97	1.46	0.919	0.927	0.943
VPS45 (vacuolar protein sorting 45 homolog)	0.572	1.63	0.53	0.747	0.0709
COL8A1 (collagen type VIII alpha 1 chain)	-0.193	2.21	-0.24	-0.384	-0.237
MAGI1	0.78	1.17	0.77	0.804	0.773
ARID5B (AT-rich interaction domain 5B)	0.439	1.89	0.493	0.294	0.327
FGFR1 (fibroblast growth factor receptor 1)	0.837	3.8	0.652	0.692	0.897
CLDN5 (claudin 5)	0.108	2.51	0.139	0.0562	0.0305
PEX12 (peroxisomal biogenesis factor 12)	-0.0493	2.45	-0.362	-0.0668	0.0591
STX3 (syntaxin 3)	-0.0579	0.867	-0.283	-0.2	0.204
NDST3 (N-deacetylase and N-sulfotransferase 3)	-0.358	2.68	-0.469	0.0461	-0.354
VN1R10P (vomeronasal 1 receptor 10, pseudogene)	0.619	1.88	0.602	0.675	0.559
ETV4 (ETS variant transcription factor 4)	0.83	4.64	0.659	0.93	0.868
NUP133 (nucleoporin 133)	-0.685	1.43	-0.817	-0.391	-0.0591
CFAP43 (cilia and flagella associated protein 43)	0.515	2.42	0.436	0.481	0.621
NEDD9	-0.0871	2.02	0.156	-0.229	-0.0807
ADPRS (ADP-ribosylserine hydrolase)	0.041	3.41	-0.205	0.301	0.102
HNRNPH2 (heterogeneous nuclear ribonucleoprotein H2)	-0.235	2.89	-0.246	-0.448	0.0782
KLF9 (KLF transcription factor 9)	0.546	4.31	0.598	0.12	0.757
PRKACB (protein kinase cAMP-activated catalytic subunit beta)	-0.123	1.59	-0.362	0.431	-0.361
F3 (coagulation factor III, tissue factor)	-0.0755	2.02	-0.193	-0.12	0.0555
KMT2B (lysine methyltransferase 2B)	-0.429	2.72	-0.165	-0.0276	-0.514
ETFDH (electron transfer flavoprotein dehydrogenase)	-0.322	2.73	-0.502	-0.389	0.212
OPA1 (OPA1 mitochondrial dynamin like GTPase)	-0.277	1.82	-0.33	-0.353	-0.0996
PTPN20 (protein tyrosine phosphatase non-receptor type 20)	-0.426	1.69	-0.235	-0.211	-0.537
OXER1 (oxoeicosanoid receptor 1)	0.699	2.17	0.701	0.74	0.745
THSD7B (thrombospondin type 1 domain containing 7B)	-0.317	1.84	-0.457	-0.383	-0.115
MGAT5	-0.112	1.62	-0.345	0.00491	-0.246
COPS5 (COP9 signalosome subunit 5)	-0.528	4.27	-0.512	-0.506	-0.509
H3-4 (H3.4 histone, cluster member)	-0.0916	3.63	0.0429	-0.22	-0.0651
ITGB1BP2 (integrin subunit beta 1 binding protein 2)	-0.144	1.7	0.217	-0.0466	-0.409
HLA-DQA1 (major histocompatibility complex, class II, DQ alpha 1)	-0.65	2.26	-0.675	-0.608	-0.671
